Source: PubChem BioAssay AID504784 (Drosophila RNAi Screening Center, 2011)

Aim: 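Genome-wide knock-down for genes giving too much or too little stored lipid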 (primary screen)
Cell system: Drosophila Kc167 embryonic cells
Knock-down reagent: long dsRNA against Drosophila genes, about 250 ng dsRNA per well
Duration: 4 days
Conditions: cells fed 400 µM oleic acid bound to BSA
Read-out: 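Microscope images give a droplet-to-nucleus area ratio, taken as log and converted to a screen-wide B-score; higher values mean greater lipid storage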
Reading the numbers: droplet/nuclear area B-score: higher = more stored lipid (overstorage)
In all, the deposit lists about 17,000 reagents; this is an unselected part of those with a known target gene and a result. 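Each column is one replicate's B-score; the combined score over replicates was not deposited, so single values may mislead.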 Not all columns of the deposit are shown.

How did the screen score CG32767 [DRSC18386]?
droplet/nuclear area B-score, replicate 1: 2.34

How did the screen score CG8312 [DRSC16406]?
droplet/nuclear area B-score, replicate 1: -0.674

With Rtel1 [DRSC18343], what does the deposit list?
droplet/nuclear area B-score, replicate 1: -1.21

For CG7646 [DRSC11232], how do the results read?
droplet/nuclear area B-score, replicate 1: -0.105

How did the screen score bab2 [DRSC08150]?
droplet/nuclear area B-score, replicate 1: 1.27

With bab2 [DRSC08380], how do the results read?
droplet/nuclear area B-score, replicate 1: 0.14

With Orp8 [DRSC15110], how do the results read?
droplet/nuclear area B-score, replicate 1: -0.442

What did the screen give for Orp8 [DRSC15712]?
droplet/nuclear area B-score, replicate 1: 0.693

What did the screen give for Gr28b [DRSC02291]?
droplet/nuclear area B-score, replicate 1: 0.69

With Gr28b [DRSC02292], how do the results read?
droplet/nuclear area B-score, replicate 1: 0.508

For Cdc7 [DRSC18428], what was measured?
droplet/nuclear area B-score, replicate 1: -4.04

For Cdc7 [DRSC18429], what was measured?
droplet/nuclear area B-score, replicate 1: -1.63

With Cdc7 [DRSC22133], what does the deposit list?
droplet/nuclear area B-score, replicate 1: 2.78

For CG15615 [DRSC06568], what was measured?
droplet/nuclear area B-score, replicate 1: 2.72

For bc10 [DRSC11326], how do the results read?
droplet/nuclear area B-score, replicate 1: -1.09

How did the screen score Awh [DRSC08140]?
droplet/nuclear area B-score, replicate 1: -0.627

With Con [DRSC08652], how do the results read?
droplet/nuclear area B-score, replicate 1: 0.81

With be [DRSC19607], how do the results read?
droplet/nuclear area B-score, replicate 1: 0.261

Which result is listed for be [DRSC19944]?
droplet/nuclear area B-score, replicate 1: -0.164

With be [DRSC19945], how do the results read?
droplet/nuclear area B-score, replicate 1: -0.156

What is on record for Ccdc39 [DRSC12286]?
droplet/nuclear area B-score, replicate 1: 0.123

For polybromo [DRSC14307], how do the results read?
droplet/nuclear area B-score, replicate 1: -0.324

What is on record for Mal-A6 [DRSC07233]?
droplet/nuclear area B-score, replicate 1: -0.495

With CYLD [DRSC02870], what was measured?
droplet/nuclear area B-score, replicate 1: -0.283

Which result is listed for CG5191 [DRSC15733]?
droplet/nuclear area B-score, replicate 1: -1.07

What is on record for CG5191 [DRSC15734]?
droplet/nuclear area B-score, replicate 1: -1.02

What is on record for CG5191 [DRSC21559]?
droplet/nuclear area B-score, replicate 1: 0.4

2 consecutive reagents already listed:
Orp8 [DRSC15110] → droplet/nuclear area B-score, replicate 1: -0.442
Orp8 [DRSC15712] → droplet/nuclear area B-score, replicate 1: 0.693
